At least one compound was matched to its structure with a doubt left.
Target: T1, PPAR Delta (Homo sapiens, UniProt Q03181)
T1 sequence (Q03181 1-441): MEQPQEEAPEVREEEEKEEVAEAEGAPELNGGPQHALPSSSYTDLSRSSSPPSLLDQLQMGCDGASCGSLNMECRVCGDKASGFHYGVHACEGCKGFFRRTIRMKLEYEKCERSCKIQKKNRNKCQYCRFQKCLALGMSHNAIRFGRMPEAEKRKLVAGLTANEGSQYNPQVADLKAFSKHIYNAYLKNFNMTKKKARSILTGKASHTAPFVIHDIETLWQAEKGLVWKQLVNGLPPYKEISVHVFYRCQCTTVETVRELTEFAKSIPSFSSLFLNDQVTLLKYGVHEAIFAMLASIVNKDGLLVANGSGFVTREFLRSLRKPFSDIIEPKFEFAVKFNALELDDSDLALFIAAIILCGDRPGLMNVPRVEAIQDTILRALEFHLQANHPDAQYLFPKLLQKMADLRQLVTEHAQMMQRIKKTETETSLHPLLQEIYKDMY
Assay: PathHunter NHR protein interaction / nuclear translocation agonist test, PPAR Delta
Assay type: cell-based

CCCc1c(OCCCOc2ccc(OCC(=O)O)cc2)ccc(C(C)=O)c1O [L-165,041, reference compound]
PPAR Delta EC50 nM (agonist mode): A (A ≤ 100 nM) | PPAR Delta Maximum Activation Response % (reference agonist, indicated to be 100% (Note 1)): 100%
